Laboratory results published in paper PMC3782497, “Unique Structure and Dynamics of the EphA5 Ligand Binding Domain Mediate Its Binding Specificity as Revealed by X-ray Crystallography, NMR and MD Simulations” (PLoS ONE, 2013).
These are yes or no findings as the source states them, for the method shown. Some entries that bind do so weakly or less than the wild type. For some of these results: Tags and fused reporters may be left off the sequences shown.

The chains behind the UniProt entries cited, without tags or fusion partners. Residues count along the entry.
UniProt P29317, residues 24-537: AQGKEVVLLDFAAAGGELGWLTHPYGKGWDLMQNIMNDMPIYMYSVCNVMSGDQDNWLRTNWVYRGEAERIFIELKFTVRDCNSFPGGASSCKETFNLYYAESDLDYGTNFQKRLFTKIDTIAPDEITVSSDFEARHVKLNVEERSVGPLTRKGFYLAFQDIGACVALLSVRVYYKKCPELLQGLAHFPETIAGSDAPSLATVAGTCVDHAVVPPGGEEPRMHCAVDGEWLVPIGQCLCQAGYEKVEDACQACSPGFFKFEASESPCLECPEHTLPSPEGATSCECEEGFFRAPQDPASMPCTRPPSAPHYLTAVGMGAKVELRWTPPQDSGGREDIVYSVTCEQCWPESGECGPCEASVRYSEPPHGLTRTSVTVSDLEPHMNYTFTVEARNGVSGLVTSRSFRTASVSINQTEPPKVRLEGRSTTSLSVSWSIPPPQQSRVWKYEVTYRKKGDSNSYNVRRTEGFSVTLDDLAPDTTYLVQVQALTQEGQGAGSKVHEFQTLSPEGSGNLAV
UniProt P54764, residues 20-547: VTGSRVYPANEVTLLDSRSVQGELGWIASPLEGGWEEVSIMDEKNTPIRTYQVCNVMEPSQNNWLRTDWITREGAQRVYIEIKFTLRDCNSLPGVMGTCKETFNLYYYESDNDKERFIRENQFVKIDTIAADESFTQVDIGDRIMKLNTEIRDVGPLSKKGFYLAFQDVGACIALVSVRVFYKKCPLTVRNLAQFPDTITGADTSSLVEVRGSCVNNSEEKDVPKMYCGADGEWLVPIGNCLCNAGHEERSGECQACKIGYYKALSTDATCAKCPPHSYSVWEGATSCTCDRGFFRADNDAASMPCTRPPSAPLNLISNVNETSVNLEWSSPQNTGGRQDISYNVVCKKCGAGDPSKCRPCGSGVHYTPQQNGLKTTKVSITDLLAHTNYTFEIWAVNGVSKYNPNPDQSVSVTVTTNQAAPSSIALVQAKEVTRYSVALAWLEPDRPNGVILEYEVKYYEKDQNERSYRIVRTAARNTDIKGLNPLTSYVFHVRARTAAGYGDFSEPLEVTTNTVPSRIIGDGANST
UniProt P54757, residues 27-575: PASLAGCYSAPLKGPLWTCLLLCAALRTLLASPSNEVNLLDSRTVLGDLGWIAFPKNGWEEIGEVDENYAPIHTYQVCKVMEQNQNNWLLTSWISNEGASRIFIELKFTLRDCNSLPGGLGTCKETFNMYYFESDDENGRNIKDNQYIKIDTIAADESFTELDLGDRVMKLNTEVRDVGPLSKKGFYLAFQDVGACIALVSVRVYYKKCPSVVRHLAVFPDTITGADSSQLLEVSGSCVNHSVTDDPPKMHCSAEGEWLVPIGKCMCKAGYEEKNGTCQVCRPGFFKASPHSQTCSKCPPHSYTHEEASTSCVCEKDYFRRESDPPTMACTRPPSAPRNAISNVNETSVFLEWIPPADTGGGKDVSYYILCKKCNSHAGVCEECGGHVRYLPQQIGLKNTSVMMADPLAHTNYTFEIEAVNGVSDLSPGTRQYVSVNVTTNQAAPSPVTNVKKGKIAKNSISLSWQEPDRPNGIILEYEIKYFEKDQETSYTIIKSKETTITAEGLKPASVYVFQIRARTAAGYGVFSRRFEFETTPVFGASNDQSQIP
UniProt Q15375, residues 28-555: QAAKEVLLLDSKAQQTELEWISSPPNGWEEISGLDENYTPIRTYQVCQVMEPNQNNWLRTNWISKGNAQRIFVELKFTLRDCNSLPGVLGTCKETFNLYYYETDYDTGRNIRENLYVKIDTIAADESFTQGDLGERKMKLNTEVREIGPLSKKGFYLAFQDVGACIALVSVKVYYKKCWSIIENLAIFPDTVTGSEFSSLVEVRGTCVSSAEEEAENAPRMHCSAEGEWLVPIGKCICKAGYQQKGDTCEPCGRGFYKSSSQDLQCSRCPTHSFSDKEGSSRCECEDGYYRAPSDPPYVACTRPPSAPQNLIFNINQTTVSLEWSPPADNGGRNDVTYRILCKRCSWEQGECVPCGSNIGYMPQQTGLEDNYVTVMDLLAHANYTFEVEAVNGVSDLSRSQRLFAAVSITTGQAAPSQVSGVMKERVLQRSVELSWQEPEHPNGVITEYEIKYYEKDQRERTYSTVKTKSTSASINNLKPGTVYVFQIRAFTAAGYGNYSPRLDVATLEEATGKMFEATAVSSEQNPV

How the values were obtained:
EphA2 Fc = EphA2 Fc (UniProt P29317); assay: ELISA; Eph receptor Fc (1 µg/mL) held on Protein A-coated wells; 0.6 nM ephrin-A5 AP (EphA receptors) or 0.2 nM ephrin-B2 AP (EphB receptors) for 1 hour, with or without 100 µM WDC; bound AP detected with pNPP
EphA4 Fc = EphA4 Fc (UniProt P54764); assay: as above
EphA6 Fc = molecular target: T1, EphA6 Fc (UniProt Q9UF33); assay: as above
T1 sequence: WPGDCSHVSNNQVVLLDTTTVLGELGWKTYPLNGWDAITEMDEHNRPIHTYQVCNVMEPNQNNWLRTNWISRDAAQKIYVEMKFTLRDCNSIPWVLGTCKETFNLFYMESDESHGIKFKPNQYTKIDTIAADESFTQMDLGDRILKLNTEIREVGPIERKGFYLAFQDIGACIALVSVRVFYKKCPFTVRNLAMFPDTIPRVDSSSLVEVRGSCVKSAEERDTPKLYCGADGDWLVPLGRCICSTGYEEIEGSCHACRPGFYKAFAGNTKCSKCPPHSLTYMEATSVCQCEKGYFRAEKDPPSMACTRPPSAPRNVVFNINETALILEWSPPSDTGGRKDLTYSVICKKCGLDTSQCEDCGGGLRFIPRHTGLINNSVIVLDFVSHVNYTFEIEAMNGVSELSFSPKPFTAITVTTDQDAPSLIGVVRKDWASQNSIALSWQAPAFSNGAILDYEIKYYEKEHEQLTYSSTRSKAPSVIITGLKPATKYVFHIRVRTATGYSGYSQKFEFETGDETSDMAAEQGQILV

EphA8 Fc = molecular target: T2, EphA8 Fc (UniProt P29322); assay: as above
T2 sequence: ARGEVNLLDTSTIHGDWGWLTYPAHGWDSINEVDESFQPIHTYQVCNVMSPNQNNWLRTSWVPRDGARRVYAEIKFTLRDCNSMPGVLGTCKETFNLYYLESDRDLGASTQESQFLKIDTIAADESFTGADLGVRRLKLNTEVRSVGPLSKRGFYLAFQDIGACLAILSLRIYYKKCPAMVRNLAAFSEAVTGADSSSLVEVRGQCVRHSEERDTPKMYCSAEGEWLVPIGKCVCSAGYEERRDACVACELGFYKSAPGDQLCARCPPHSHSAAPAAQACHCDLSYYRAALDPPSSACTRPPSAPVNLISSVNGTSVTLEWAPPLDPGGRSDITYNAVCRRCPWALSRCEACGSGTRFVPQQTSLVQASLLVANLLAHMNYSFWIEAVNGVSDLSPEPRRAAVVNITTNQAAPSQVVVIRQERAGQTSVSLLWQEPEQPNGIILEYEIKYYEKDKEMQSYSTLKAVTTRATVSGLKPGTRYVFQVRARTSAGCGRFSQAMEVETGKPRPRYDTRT

rat EphA5 Fc [1] = molecular target: T3, rat EphA5 Fc (rat, UniProt P54757 27-575); assay: as above
T3 construct: EphA5, rat, Fc fusion; source: bought: R&D Systems

EphA7 Fc = EphA7 Fc (UniProt Q15375); assay: as above
rat EphA5 Fc [2] = molecular target: T3, rat EphA5 Fc; assay: ELISA; rat EphA5 Fc (1 µg/mL) held on Protein A-coated wells; 0.6 nM ephrin-A5 AP for 1 hour, with or without WDC; bound AP detected with pNPP

Measured: binding

B1: ephrin-A5 alkaline phosphatase (AP) (ligand, UniProt P52803 21-203)
chain: QDPGSKAVADRYAVYWNSSNPRFQRGDYHIDVCINDYLDVFCPHYEDSVPEDKTERYVLYMVNFDGYSACDHTSKGFKRWECNRPHSPNGPLKFSEKFQLFTPFSLGFEFRPGREYFYISSAIPDNGRRSCLKLKVFVRPTNSCMKTIGVHDRVFDVNDKVENSLEPADDTVHESAEPSRGEN
binds: all assays above
